Measurements as given in PMC10398660.
Results are given in words; binding and its absence hold for the method and conditions named. Binding seen in cells or lysates may run through a third protein. Some binding calls cover weakened binding; strength is not graded here. Sequences can lack the tags named with a protein.

Chains of the proteins cited; added tags and fusions are not shown.
UniProt O95071: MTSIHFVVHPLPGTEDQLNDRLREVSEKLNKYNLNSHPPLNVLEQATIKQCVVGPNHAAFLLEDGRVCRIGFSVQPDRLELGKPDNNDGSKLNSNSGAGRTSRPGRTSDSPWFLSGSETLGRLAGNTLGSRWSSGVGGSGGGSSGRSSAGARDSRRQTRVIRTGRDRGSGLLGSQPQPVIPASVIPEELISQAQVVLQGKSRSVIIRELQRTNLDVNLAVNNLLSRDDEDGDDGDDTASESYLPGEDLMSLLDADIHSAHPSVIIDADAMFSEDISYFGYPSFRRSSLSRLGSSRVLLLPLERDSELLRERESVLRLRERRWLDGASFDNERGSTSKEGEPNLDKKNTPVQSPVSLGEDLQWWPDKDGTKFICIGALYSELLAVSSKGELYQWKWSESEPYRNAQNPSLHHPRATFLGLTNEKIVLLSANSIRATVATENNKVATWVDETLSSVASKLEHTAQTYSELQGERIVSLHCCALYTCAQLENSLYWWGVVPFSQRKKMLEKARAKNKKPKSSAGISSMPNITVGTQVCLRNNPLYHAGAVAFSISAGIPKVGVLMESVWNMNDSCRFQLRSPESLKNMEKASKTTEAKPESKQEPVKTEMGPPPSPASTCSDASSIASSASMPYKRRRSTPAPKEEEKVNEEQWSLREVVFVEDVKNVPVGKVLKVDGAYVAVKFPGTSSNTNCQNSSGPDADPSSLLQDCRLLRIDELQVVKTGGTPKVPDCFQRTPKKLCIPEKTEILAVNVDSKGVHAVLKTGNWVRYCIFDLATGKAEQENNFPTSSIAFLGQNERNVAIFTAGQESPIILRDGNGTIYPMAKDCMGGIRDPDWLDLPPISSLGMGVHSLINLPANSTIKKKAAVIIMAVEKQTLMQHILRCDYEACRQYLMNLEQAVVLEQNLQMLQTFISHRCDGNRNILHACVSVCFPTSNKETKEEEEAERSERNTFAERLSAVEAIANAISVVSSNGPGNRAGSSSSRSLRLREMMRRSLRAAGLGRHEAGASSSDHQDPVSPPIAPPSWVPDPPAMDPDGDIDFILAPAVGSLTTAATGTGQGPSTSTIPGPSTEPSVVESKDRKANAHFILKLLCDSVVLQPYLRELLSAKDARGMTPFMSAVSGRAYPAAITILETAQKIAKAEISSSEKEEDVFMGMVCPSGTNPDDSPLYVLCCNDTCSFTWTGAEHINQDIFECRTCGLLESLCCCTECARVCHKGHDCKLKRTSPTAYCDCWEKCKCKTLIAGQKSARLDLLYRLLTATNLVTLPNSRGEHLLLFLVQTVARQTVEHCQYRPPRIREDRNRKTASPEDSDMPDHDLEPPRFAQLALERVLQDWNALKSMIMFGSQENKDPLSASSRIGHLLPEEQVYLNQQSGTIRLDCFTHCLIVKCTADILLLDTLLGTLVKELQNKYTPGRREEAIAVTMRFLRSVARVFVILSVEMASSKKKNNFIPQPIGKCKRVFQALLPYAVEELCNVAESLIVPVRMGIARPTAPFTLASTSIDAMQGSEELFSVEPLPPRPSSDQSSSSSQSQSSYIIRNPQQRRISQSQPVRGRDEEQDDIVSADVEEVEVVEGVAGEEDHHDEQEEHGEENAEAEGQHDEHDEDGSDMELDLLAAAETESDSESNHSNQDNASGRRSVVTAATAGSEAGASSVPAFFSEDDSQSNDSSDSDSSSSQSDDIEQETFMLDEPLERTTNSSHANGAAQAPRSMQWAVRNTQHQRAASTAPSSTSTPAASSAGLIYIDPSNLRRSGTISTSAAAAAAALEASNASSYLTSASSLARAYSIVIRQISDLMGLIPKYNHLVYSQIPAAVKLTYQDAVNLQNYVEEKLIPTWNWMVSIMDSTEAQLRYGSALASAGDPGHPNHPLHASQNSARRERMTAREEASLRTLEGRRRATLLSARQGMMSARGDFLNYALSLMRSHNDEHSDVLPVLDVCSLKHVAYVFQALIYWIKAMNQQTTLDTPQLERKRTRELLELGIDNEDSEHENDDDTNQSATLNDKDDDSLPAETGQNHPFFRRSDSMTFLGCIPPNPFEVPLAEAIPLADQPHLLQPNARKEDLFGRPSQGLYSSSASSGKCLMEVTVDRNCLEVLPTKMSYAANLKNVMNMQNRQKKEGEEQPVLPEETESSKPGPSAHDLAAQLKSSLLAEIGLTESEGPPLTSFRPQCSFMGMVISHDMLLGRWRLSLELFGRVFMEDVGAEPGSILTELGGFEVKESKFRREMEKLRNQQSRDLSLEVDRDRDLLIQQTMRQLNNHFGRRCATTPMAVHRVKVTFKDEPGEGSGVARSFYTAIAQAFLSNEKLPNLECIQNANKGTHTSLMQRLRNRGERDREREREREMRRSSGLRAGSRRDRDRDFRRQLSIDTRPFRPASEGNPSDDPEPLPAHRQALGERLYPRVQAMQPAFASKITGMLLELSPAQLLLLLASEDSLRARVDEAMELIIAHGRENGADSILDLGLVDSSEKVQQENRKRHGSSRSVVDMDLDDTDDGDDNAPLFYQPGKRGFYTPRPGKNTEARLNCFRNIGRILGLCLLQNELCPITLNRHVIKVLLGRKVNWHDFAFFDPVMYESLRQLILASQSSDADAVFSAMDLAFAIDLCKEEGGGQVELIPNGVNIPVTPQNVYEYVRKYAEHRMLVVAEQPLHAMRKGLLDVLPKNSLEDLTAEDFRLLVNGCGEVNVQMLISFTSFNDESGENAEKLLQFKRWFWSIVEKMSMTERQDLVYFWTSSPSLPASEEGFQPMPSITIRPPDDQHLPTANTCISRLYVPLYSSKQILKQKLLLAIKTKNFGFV

What was measured:
[1] = biological target: T1, C9orf72-HA (C-terminal HA-tagged C9orf72) (UniProt Q96LT7); test: co-IP; HA-IP (anti-HA beads, overnight, 4°C, MCLB buffer) from C9orf72-HA expressing parental and SMCR8 KO 293T cells treated with DMSO or Btz; immunoblot
T1 sequence: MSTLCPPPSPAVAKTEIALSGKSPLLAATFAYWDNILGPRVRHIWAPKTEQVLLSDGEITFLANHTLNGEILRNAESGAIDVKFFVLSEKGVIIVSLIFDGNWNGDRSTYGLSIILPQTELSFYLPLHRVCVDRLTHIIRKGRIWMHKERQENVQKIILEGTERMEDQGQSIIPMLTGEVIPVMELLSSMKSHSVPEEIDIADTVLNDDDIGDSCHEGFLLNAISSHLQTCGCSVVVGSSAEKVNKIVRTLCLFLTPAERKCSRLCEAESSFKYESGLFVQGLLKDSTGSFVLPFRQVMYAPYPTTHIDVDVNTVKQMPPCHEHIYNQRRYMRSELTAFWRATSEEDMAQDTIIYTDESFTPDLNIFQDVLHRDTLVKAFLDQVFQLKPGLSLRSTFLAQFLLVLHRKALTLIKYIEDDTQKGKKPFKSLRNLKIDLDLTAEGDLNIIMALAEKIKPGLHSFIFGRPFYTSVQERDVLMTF

[2] = biological target: GFP-UBR5 (UniProt O95071); test: pull-down; Streptavidin agarose loaded with biotinylated GFP VHH nanobodies, incubated with 293T lysates in MCLB buffer overnight at 4°C; cells treated with DMSO or Btz; immunoblot

B1: UBL4A, endogenous (protein, UniProt P11441 1-157)
chain: MQLTVKALQGRECSLQVPEDELVSTLKQLVSEKLNVPVRQQRLLFKGKALADGKRLSDYSIGPNSKLNLVVKPLEKVLLEEGEAQRLADSPPPQVWQLISKVLARHFSAADASRVLEQLQRDYERSLSRLTLDDIERLASRFLHPEVTETMEKGFSK
With B1 the binding [1] was “binds”.

B2: C9orf72-HA (C-terminal HA-tagged C9orf72) (protein, UniProt Q96LT7 1-481)
chain: T1 sequence
In the case of B2, the binding [2] is reported as “binds”.

B3: endogenous C9orf72 (protein, UniProt Q96LT7 1-481)
chain: T1 sequence
B3 was tested, and the binding [2] was “binds”.
